Reference: patent publication US20240043529A1, “METHODS AND COMPOSITIONS RELATED TO BCL2 AND BIM HETERODIMER ANTIBODIES” (Eutropics Pharmaceuticals, Inc., priority 2020, published 2024)
Results are given in words; binding and its absence hold for the method and conditions named. Some entries that bind do so weakly or less than the wild type.

The chains behind the UniProt entries cited, without tags or fusion partners. Where a name states a change or a piece, a line headed by the entry shows the natural chain unless it says otherwise.
UniProt P10415: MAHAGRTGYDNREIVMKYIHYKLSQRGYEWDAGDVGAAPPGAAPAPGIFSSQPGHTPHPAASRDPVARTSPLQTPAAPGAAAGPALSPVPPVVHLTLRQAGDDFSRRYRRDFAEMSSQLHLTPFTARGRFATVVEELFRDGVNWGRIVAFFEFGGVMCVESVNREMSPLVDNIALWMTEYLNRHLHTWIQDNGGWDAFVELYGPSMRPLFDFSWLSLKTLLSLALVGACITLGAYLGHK
UniProt O43521: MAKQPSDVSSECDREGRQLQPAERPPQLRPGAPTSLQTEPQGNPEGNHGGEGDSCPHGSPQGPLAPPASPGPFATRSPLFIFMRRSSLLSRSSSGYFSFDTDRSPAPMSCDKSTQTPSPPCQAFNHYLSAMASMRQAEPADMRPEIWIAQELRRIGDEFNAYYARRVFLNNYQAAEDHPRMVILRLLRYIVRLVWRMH

Target: Bc12:BIM heterodimer (as used in FIG. 8) (human) (UniProt P10415+O43521)
Experiment: ELISA, signal relative to the Bc12:BIM heterodimer

B1: HSB2B clone 2H3G7 (antibody, V domains shown)
VH: QVQLQQPGAELVKPGTSVKLSCQASGYTFASYWMHWVKQRPGRGLEWIGRIDPNSGGTKYNEKFKSKVTLTVDKPSSAAYMQLSSLTSEDSAVYYCARWWDYDYFDYWGQGTTLTVSS
VL: DIVMTQSPSSLTVTAGEKVTMSCKSSQSLLNSGNQKRYLTWYQQKPGQPPKLLIYWASTRESGVPDRFTGSGSGTDFTLTISSVQAEDLAVYYCQNDYNYPLTFGSGTKLELK
notes: Mouse IgG, tested as hybridoma supernatant; also called HSB2B mAb 2H3
Which binding does the source give for B1 here?
The binding was “binds”.

B2: HSB2B clone 28A9D11 (antibody, V domains shown)
VH: DVQLQESGPGLVKPSQSLSLTCSVTGYSITSGYYWNWIRQFPGNKLEWMGYISYDGSNNYNPSLKNRISITRDTSKNQFFLKLNSVTTEDTATYYCARDGTTVVATLAYWGQGTLVTVSA
VL: QIVLTQSPAIMSASPGEKVTISCSASSSVSYMYWYQQKPGSSPKPWIYRTSNLASGVPARFSGSGSGTSYSLTISSMEAEDAATYYCQQYHSYPPTFGAGTKLELK
notes: Mouse IgG, tested as hybridoma supernatant
For B2, which binding is on record?
Its binding is “binds”.
